Results are given in words; binding and its absence hold for the method and conditions named.
Tests used:
Experiment in all cases: protein binding radioassay
κ opioid receptor (KOR) = target: κ opioid receptor (KOR)
µ opioid receptor (MOR) = target: µ opioid receptor (MOR)
δ opioid receptor (DOR) = target: δ opioid receptor (DOR)

Measured: binding

YASPKCFRYPNGVLACT (cyclo: disulfide bond Cys6-Cys16) [Odorranalectin (OL)]
no binding: κ opioid receptor (KOR) | µ opioid receptor (MOR) | δ opioid receptor (DOR)
